Laboratory results taken from article PMC8462813.
Results are given in words; binding and its absence hold for the method and conditions named. For part of these data: Binding seen in cells or lysates may run through a third protein. Tags and fused reporters may be left off the sequences shown.

B1: ABI5-cYFP (protein, UniProt Q9SJN0 1-442)
chain: MVTRETKLTSEREVESSMAQARHNGGGGGENHPFTSLGRQSSIYSLTLDEFQHALCENGKNFGSMNMDEFLVSIWNAEENNNNQQQAAAAAGSHSVPANHNGFNNNNNNGGEGGVGVFSGGSRGNEDANNKRGIANESSLPRQGSLTLPAPLCRKTVDEVWSEIHRGGGSGNGGDSNGRSSSSNGQNNAQNGGETAARQPTFGEMTLEDFLVKAGVVREHPTNPKPNPNPNQNQNPSSVIPAAAQQQLYGVFQGTGDPSFPGQAMGVGDPSGYAKRTGGGGYQQAPPVQAGVCYGGGVGFGAGGQQMGMVGPLSPVSSDGLGHGQVDNIGGQYGVDMGGLRGRKRVVDGPVEKVVERRQRRMIKNRESAARSRARKQAYTVELEAELNQLKEENAQLKHALAELERKRKQQYFESLKSRAQPKLPKSNGRLRTLMRNPSCPL
B2: AD-ABI5 (ABSCISIC ACID-…5, full length, fused to the Gal4 activation domain) (protein, UniProt Q9SJN0 1-442)
chain: B1 chain

Experiments:
[1] = biological target: PRR9-nYFP (Arabidopsis thaliana); assay: split reporter; BiFC with cYFP and nYFP fusions transiently coexpressed in N. benthamiana leaf cells; YFP fluorescence read by confocal microscopy 40-52 h after infiltration
[2] = biological target: BD-PRR3 (full length, fused to the Gal4 DNA-binding domain) (Arabidopsis thaliana); assay: two-hybrid; Gal4 system; baits in pGBKT7 (BD), preys in pGADT7 (AD), cotransformed into yeast AH109; growth on dropout medium lacking Leu, Trp, His and Ade for 4 days
[3] = biological target: BD-PRR9 (full length, fused to the Gal4 DNA-binding domain) (Arabidopsis thaliana); assay: as above

Binder	binding [1]	binding [2]	binding [3]
B1	no binding	–	–
B2	–	no binding	no binding
